The values below are quoted from earlier work in US6558650B1, “Enhancement of cellular gallium uptake” (Oregon Health and Science University, priority 1998, dated 2003).

SMILES strings stand for the structures.

For the data set the following is noted: cited from earlier work.

For the compound `COC(=O)C1=C(C)NC(C)=C(C(=O)OC)C1c1ccccc1[N+](=O)[O-]` [Nifedipine, dimethyl 1,4-dihydro-2,6-dimethyl-4-(2-nitrophenyl)-3,5-pyridinedicarboxylate], the oral absorption entry is recorded as “well-absorbed orally”.
